Assay results taken from patent US7132296B2, “Method for assaying the antioxidant capacity of a sample” (Medical Products Manufacturing, LLC, priority 2002, dated 2006).
For at least one compound, name, drawing or mass did not settle the structure.

Legend:
[1] = ORAC assay with B-phycoerythrin probe (ORACB-PE / ORACPE); assay type: biochemical; conditions: calculated based on equation 2, n > 3
Procedure: In accordance with the published ORAC assay, a sample such as fresh fruit, blood senun, or an additive or supplement in powder form is prepared for extraction and extracted first in water and then in acetone. A protein based fluorescent probe, namely B-phycoerythrin (B-PE) is then added to the extract. A standard, having high antioxidant capacity, such as diluted grape seed extract (GSE) or TROLOX® (6-hydroxy-2,5,7,8-tetramethylchroman-2-carboxylic acid), a water soluble analog of vitamin E, is added to the extract to provide a comparison of the antioxidant capacity of the sample to the standard. The extract, the standard, and a blank sample are then loaded into the COBAS FARA II device and an initial fluorescence emission of the probe is taken. Next, AAPH, (2,2′-azobis (2-amidino-propane) dihydrochloride), which generates free radicals upon heating, is added to the extract of the sample and the standard and fluorescence emission readings are taken until a zero value is reached for the extract of the sample. To measure the protective effect of an antioxidant using the ORAC assay, the area under the fluorescence decay curve (AUC) of the sample is calculated and compared to that of the blank in which no antioxidant is present. […]

[2] = ORAC assay with fluorescein probe (ORACFL), peroxyl radical scavenging assay; assay type: biochemical; conditions: for Ratio (ORACFL/ORACB-PE): chemicals, Table 1; for ORACFL: fluorescein probe, calculated based on equation 2, n > 3
Procedure: In accordance with the subject invention the area under the curve (AUC) for the sample, standard, and blank are calculated as: AUC=0.5+f1/f0+f2/f0+f3/f0+f4/f0+ . . . +fi/f0 (1) Where f0=initial fluorescence reading at 0 minute, and fi is the fluorescence reading at time i. Typically, equation (1) is solved and the data analyzed in an electronic spreadsheet such as Microsoft Excel or other similar products or computer programs. The AUC is calculated for sample 60, standard 62 and blank 64. The net AUC is obtained by subtracting the AUC of blank 64 from sample 60. The relative ORAC value for sample 60, expressed in Trolox equivalents is calculated as: Relative ORAC value=[(AUCsample−AUCBlank)/(AUCTrolox−AUCBlank)]×(molarity of Trolox/molarity of sample) (2)
Flavonoid compounds and β-phycoerythrin were purchased from Sigma (St. Louis, Mo.). Trolox, ascorbic acid and disodium fluorescein were obtained from Aldrich (Milwaukee, Wis.). 2,2′-azobis (2-amidino-propane) dihydrochloride (AAPH) was purchased from Wako Chemicals USA (Richmond, Va.). Various analyzed samples were also obtained. ORAC analyses were performed on a COBAS FARA II analyzer (Roche Diagnostic System Inc., Branchburg, N.J.; Excitation wavelength=493 nm and emission filter=515 nm).
Ascorbic acid and flavonoids were directly dissolved in acetone/water mixture (50:50, v/v) and diluted with pH 7.4 phosphate buffer for analysis. The solid samples were initially ground in a mechanical mill to produce a fine power; then 0.5 grams were accurately weighed and 20 mL of acetone/water (50:50, v/v) extraction solvent was added. The mixture was shaken at 400 RPM at room temperature on an orbital shaker for one hour. The extracts were centrifuged at 14000 rpm for 15 min, and the supernatant was ready for analysis after appropriate dilution with buffer solution. For liquid samples, a 20 mL aliquot of sample was centrifuged for 15 min and the supernatant was ready for analysis after appropriate dilution. Blood plasma or serum was diluted 100 to 200 fold with pH 7.4 phosphate buffer before analysis. […]
Peroxyl radical scavenging assay. […] With spinning of the rotor, the reagents are mixed and incubated for 30 s before recording the initial fluorescence (f0). […] Fluorescence readings are taken at 0.5 s and then every minute thereafter (f1, f2, f3 . . . ) for a duration of 30 min. If the fluorescence of the final reading has not declined by >95% from the first reading, the dilution of sample is adjusted accordingly and the sample is reanalyzed. […]

SMILES | ORACB-PE [1] | Ratio (ORACFL/ORACB-PE) [2] | ORACFL [2]
O=C(O)/C=C/c1ccc(O)cc1 [Coumaric Acid] | 1.45 ± 0.03 relative Trolox equivalent | 2.03 | 2.95 ± 0.24 relative Trolox equivalent
C[C@@H]1O[C@@H](OC[C@H]2O[C@@H](Oc3c(-c4ccc(O)c(O)c4)oc4cc(O)cc(O)c4c3=O)[C@H](O)[C@@H](O)[C@@H]2O)[C@H](O)[C@H](O)[C@H]1O [Rutin] | 1.95 ± 0.21 relative Trolox equivalent | 2.19 | 4.28 ± 0.25 relative Trolox equivalent
